According to patent publication US20120283189A1:
Results are given in words; binding and its absence hold for the method and conditions named. In cells and extracts the contact can be indirect. Binding can be weak; no strength is given.

What was measured:
[1] = target: β1 Na+-K+ pump subunit of rabbit cardiac myocytes (rabbit); assay: co-immunoprecipitation, β1 immunoblot of FXYD1 immunoprecipitate
[2] = target: β1 Na+-K+ pump subunit of rabbit cardiac myocytes (rabbit); assay: co-immunoprecipitation from rabbit myocytes, with and without Ang II

binding [1]: binds
binding [2]: binds
B1: native FXYD1 of rabbit cardiac myocytes (protein, UniProt G1TZA0 21-92, looked up)
chain: EAPQEQDPFTYDYQSLRIGGLIIAGILFILGILIILKRGAWERFDTARRTGEPDEEEGTFRSSIRRLSTRRR
